In article PMC8580996, “2-Oxoglutarate derivatives can selectively enhance or inhibit the activity of human oxygenases” (Nature Communications, 2021):
Values joined by “and” are separate entries in the source; they are usually repeats but may differ in a detail not shown here. Equal values may be shown once. Further values from the same series stand in other lists.

Protein sequences, listed by entry. Tags and fused reporters are not part of them. Lines headed by an entry give the natural chain unless they say otherwise; changes in a name come on top.
UniProt Q9NWT6: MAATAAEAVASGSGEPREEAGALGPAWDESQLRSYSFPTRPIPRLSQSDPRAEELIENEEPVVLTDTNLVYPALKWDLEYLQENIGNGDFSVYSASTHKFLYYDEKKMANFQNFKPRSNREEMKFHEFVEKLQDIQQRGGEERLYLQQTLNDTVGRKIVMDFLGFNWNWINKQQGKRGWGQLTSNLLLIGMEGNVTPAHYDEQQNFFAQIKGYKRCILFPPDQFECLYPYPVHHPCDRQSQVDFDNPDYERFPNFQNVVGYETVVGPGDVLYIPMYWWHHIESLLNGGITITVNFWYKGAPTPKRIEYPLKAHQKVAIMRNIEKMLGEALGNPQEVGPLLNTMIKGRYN

Assays:
FIH [1] = target: T1, FIH (Homo sapiens, UniProt Q9NWT6); experiment: FIH steady-state kinetic parameters (SPE-MS, initial hydroxylation rates); assay type: biochemical
Experimental: Final 2OG/2OG derivative concentrations are given in Supplementary Figs. 5 and 6. Reactions were monitored with a rate of ~1 sample/40 s using the same SPE-MS configuration as described above. Data were analyzed as described above and the slopes of the initial reaction rates (Supplementary Figs. 5 and 6) fitted to a Michaelis–Menten plot using non-linear regression (GraphPad Prism 5). […]
determine kinetic parameters for 2OG derivatives (continues on the following page). Maximum velocities (vapp ) and Michaelis constants (Kapp) of FIH were determined in independent triplicates for 2OG and the 2OG […]
SPE-MS as described in the Methods section. […]
acid (LAA), and 20 μM ammonium iron(II) sulfate hexahydrate (FAS, (NH4)2Fe(SO4)2·6H2O) in buffer (50 mM […]
Tris, 50 mM NaCl, pH 7.5, 20° C). […]
data are provided as a Source Data file. […]
concentrations of 2OG; (b) hydroxylation rates used to determine kinetic parameters of FIH for 2OG; (c) time […]
3-methyl-2OG (1); (d) hydroxylation rates used to determine kinetic parameters of FIH for 1; (e) time course of […]
2OG (12); (f) hydroxylation rates used to determine kinetic parameters of FIH for 12; (g) time course of the FIH- […]
(h) hydroxylation rates used to determine kinetic parameters of FIH for 14; (i) time course of the FIH-catalyzed […]
(carboxycarbonyl)cyclopentane-1-carboxylic acid (22); (j) hydroxylation rates used to determine kinetic parameters of FIH for 22.
Supplementary Figure 6. Hydroxylation rates of FIH-catalyzed CA1-20 hydroxylations used to determine kinetic parameters for 2OG derivatives (continues on the following page). Maximum velocities (vapp ) and […]
ammonium iron(II) sulfate hexahydrate (FAS, (NH4)2Fe(SO4)2·6H2O) in buffer (50 mM Tris, 50 mM NaCl, pH […]
Source data are provided as a Source […]
of 2OG; (b) hydroxylation rates used to determine kinetic parameters of FIH for 2OG; (c) time course of the FIH-catalyzed hydroxylation reaction of the CA1-20 peptide for the shown concentrations of 3-methyl-2OG (1); (d) hydroxylation rates used to determine kinetic parameters of FIH for 1; (e) time course of the FIH -catalyzed hydroxylation reaction of the CA 1-20 peptide for the shown concentrations of 4 -methyl-2OG (12); (f) hydroxylation rates used to determine kinetic parameters of FIH for 12; (g) time course of the FIH-catalyzed hydroxylation reaction of the CA1-20 peptide for the shown concentrations of 4-ethyl-2OG (14); (h) hydroxylation rates used to determine kinetic parameters of FIH for 14; (i) time course of the FIH-catalyzed hydroxylation reaction of the CA1-20 peptide for the shown concentrations of 3-(carboxycarbonyl)cyclopentane-1-carboxylic acid (22); (j) hydroxylation rates used to determine kinetic parameters of FIH for 22.

FIH [2] = target: T1, FIH; experiment: Competition assay in a single reaction vessel, FIH-catalyzed hydroxylation (SPE-MS); assay type: biochemical; conditions: Fig 2e, 20 μM 12 and 100 μM 2OG, 0.956333 min
Experimental: Mean of three independent runs (n = 3; mean ± SD). […] Cosubstrates: a 20 μM 2OG; b 20 μM 2OG; c 20 μM 1; d 20 μM 12; e 20 μM 12 and 100 μM 2OG; f 100 μM 14. Source data are provided as a Source Data file.
Mean of three independent runs (n = 3; mean ± SD). […] Source data are provided as a Source Data file.
Peptide turnover was monitored by SPE-MS using the same instrument configuration (with the exception that the peptides were eluted from the SPE cartridge with 0.1%v/v aqueous formic acid in 80/20 v/v acetonitrile/water) as described above.
FIH and AspH-catalyzed peptide hydroxylations were analyzed simultaneously using SPE-MS as described in the
Methods section; competition experiments were performed in the same reaction vessel using equimolar 2OG
oxygenase and substrate concentrations. […]
Source data are provided as a Source Data file.
FIH and AspH-catalyzed peptide hydroxylations were analyzed simultaneously using SPE-
MS as described in the Methods section; competition experiments were performed in the same reaction vessel
using equimolar 2OG oxygenase and substrate concentrations. […]
2OG, 100 μM 14. Source data are provided as a Source Data file.

## CC(CC(=O)C(=O)O)C(=O)O (stereo not shown) [compound 12, 4-methyl-2OG]
FIH [1]; 0.25 uM compound 12, time 2.797 min
  SPE-MS determined concentration of hydroxylated HIF-1a peptide: 0.09071 µM and 0.1412 µM and 0.124 µM
FIH [1]; 0.25 uM compound 12, time 3.49667 min
  SPE-MS determined concentration of hydroxylated HIF-1a peptide: 0.09993 µM and 0.1464 µM and 0.1378 µM
FIH [1]; 0.25 uM compound 12, time 4.19733 min
  SPE-MS determined concentration of hydroxylated HIF-1a peptide: 0.1129 µM and 0.1583 µM and 0.1483 µM
FIH [1]; 0.25 uM compound 12, time 4.89717 min
  SPE-MS determined concentration of hydroxylated HIF-1a peptide: 0.1089 µM and 0.1658 µM and 0.1602 µM
FIH [1]; 0.25 uM compound 12, time 5.5955 min
  SPE-MS determined concentration of hydroxylated HIF-1a peptide: 0.1176 µM and 0.1603 µM and 0.1592 µM
FIH [1]; 0.25 uM compound 12, time 6.29533 min
  SPE-MS determined concentration of hydroxylated HIF-1a peptide: 0.1145 µM and 0.1639 µM and 0.1489 µM
FIH [1]; 0.5 uM compound 12, time 2.797 min
  SPE-MS determined concentration of hydroxylated HIF-1a peptide: 0.1725 µM and 0.1847 µM
FIH [1]; 0.5 uM compound 12, time 3.49667 min
  SPE-MS determined concentration of hydroxylated HIF-1a peptide: 0.2391 µM and 0.187 µM and 0.2119 µM
FIH [1]; 0.5 uM compound 12, time 4.19733 min
  SPE-MS determined concentration of hydroxylated HIF-1a peptide: 0.2658 µM and 0.2045 µM and 0.2266 µM
FIH [1]; 0.5 uM compound 12, time 4.89717 min
  SPE-MS determined concentration of hydroxylated HIF-1a peptide: 0.2681 µM and 0.219 µM and 0.2299 µM
FIH [1]; 0.5 uM compound 12, time 5.5955 min
  SPE-MS determined concentration of hydroxylated HIF-1a peptide: 0.2701 µM and 0.2146 µM and 0.247 µM
FIH [1]; 0.5 uM compound 12, time 6.29533 min
  SPE-MS determined concentration of hydroxylated HIF-1a peptide: 0.259 µM and 0.2091 µM and 0.237 µM
FIH [1]; 1 uM compound 12, time 3.49667 min
  SPE-MS determined concentration of hydroxylated HIF-1a peptide: 0.3014 µM and 0.3634 µM and 0.3734 µM
FIH [1]; 1 uM compound 12, time 4.19733 min
  SPE-MS determined concentration of hydroxylated HIF-1a peptide: 0.3294 µM and 0.3948 µM and 0.4133 µM
FIH [1]; 1 uM compound 12, time 4.89717 min
  SPE-MS determined concentration of hydroxylated HIF-1a peptide: 0.3454 µM and 0.4241 µM and 0.4354 µM
FIH [1]; 1 uM compound 12, time 5.5955 min
  SPE-MS determined concentration of hydroxylated HIF-1a peptide: 0.3453 µM and 0.4357 µM and 0.4408 µM
FIH [1]; 1 uM compound 12, time 6.29533 min
  SPE-MS determined concentration of hydroxylated HIF-1a peptide: 0.3306 µM and 0.4276 µM and 0.4472 µM
FIH [1]; 2 uM compound 12, time 3.49667 min
  SPE-MS determined concentration of hydroxylated HIF-1a peptide: 0.4649 µM and 0.5223 µM and 0.5427 µM
FIH [1]; 2 uM compound 12, time 4.19733 min
  SPE-MS determined concentration of hydroxylated HIF-1a peptide: 0.5216 µM and 0.5936 µM and 0.6251 µM
FIH [1]; 2 uM compound 12, time 4.89717 min
  SPE-MS determined concentration of hydroxylated HIF-1a peptide: 0.5568 µM and 0.6359 µM and 0.6495 µM
FIH [1]; 2 uM compound 12, time 5.5955 min
  SPE-MS determined concentration of hydroxylated HIF-1a peptide: 0.5773 µM and 0.6428 µM and 0.6897 µM
FIH [1]; 2 uM compound 12, time 6.29533 min
  SPE-MS determined concentration of hydroxylated HIF-1a peptide: 0.579 µM and 0.6277 µM and 0.6979 µM
FIH [1]; 4 uM compound 12, time 3.49667 min
  SPE-MS determined concentration of hydroxylated HIF-1a peptide: 0.9275 µM and 0.7569 µM and 0.728 µM
FIH [1]; 4 uM compound 12, time 4.19733 min
  SPE-MS determined concentration of hydroxylated HIF-1a peptide: 1.07 µM and 0.847 µM and 0.8317 µM
FIH [1]; 4 uM compound 12, time 4.89717 min
  SPE-MS determined concentration of hydroxylated HIF-1a peptide: 1.168 µM and 0.9361 µM and 0.9243 µM
FIH [1]; 4 uM compound 12, time 5.5955 min
  SPE-MS determined concentration of hydroxylated HIF-1a peptide: 1.209 µM and 0.999 µM and 0.9606 µM
FIH [1]; 4 uM compound 12, time 6.29533 min
  SPE-MS determined concentration of hydroxylated HIF-1a peptide: 1.222 µM and 1.005 µM and 0.9645 µM
FIH [1]; 8 uM compound 12, time 3.49667 min
  SPE-MS determined concentration of hydroxylated HIF-1a peptide: 0.9111 µM and 0.9347 µM and 0.8089 µM
FIH [1]; 8 uM compound 12, time 4.19733 min
  SPE-MS determined concentration of hydroxylated HIF-1a peptide: 1.038 µM and 1.103 µM and 0.9365 µM
FIH [1]; 8 uM compound 12, time 4.89717 min
  SPE-MS determined concentration of hydroxylated HIF-1a peptide: 1.139 µM and 1.195 µM and 1.014 µM
FIH [1]; 8 uM compound 12, time 5.5955 min
  SPE-MS determined concentration of hydroxylated HIF-1a peptide: 1.192 µM and 1.298 µM and 1.073 µM
FIH [1]; 8 uM compound 12, time 6.29533 min
  SPE-MS determined concentration of hydroxylated HIF-1a peptide: 1.196 µM and 1.327 µM and 1.105 µM
FIH [1]; 16 uM compound 12, time 3.49667 min
  SPE-MS determined concentration of hydroxylated HIF-1a peptide: 1.022 µM and 0.9265 µM and 0.9433 µM
FIH [1]; 16 uM compound 12, time 4.19733 min
  SPE-MS determined concentration of hydroxylated HIF-1a peptide: 1.17 µM and 1.078 µM and 1.089 µM
FIH [1]; 16 uM compound 12, time 4.89717 min
  SPE-MS determined concentration of hydroxylated HIF-1a peptide: 1.289 µM and 1.185 µM and 1.195 µM
FIH [1]; 16 uM compound 12, time 5.5955 min
  SPE-MS determined concentration of hydroxylated HIF-1a peptide: 1.344 µM and 1.278 µM and 1.256 µM
FIH [1]; 16 uM compound 12, time 6.29533 min
  SPE-MS determined concentration of hydroxylated HIF-1a peptide: 1.364 µM and 1.297 µM and 1.311 µM
FIH [1]; 32 uM compound 12, time 3.49667 min
  SPE-MS determined concentration of hydroxylated HIF-1a peptide: 0.8916 µM and 0.976 µM and 0.97 µM
FIH [1]; 32 uM compound 12, time 4.19733 min
  SPE-MS determined concentration of hydroxylated HIF-1a peptide: 1.038 µM and 1.128 µM and 1.132 µM
FIH [1]; 32 uM compound 12, time 4.89717 min
  SPE-MS determined concentration of hydroxylated HIF-1a peptide: 1.15 µM and 1.251 µM and 1.234 µM
FIH [1]; 32 uM compound 12, time 5.5955 min
  SPE-MS determined concentration of hydroxylated HIF-1a peptide: 1.241 µM and 1.308 µM and 1.329 µM
FIH [1]; 32 uM compound 12, time 6.29533 min
  SPE-MS determined concentration of hydroxylated HIF-1a peptide: 1.275 µM and 1.312 µM and 1.359 µM
FIH [2]
  substrate hydroxylation (% conversion): 51.2304 and 48.0779
